According to paper PMC6255977:

What was measured:
[1] = target: SmbHLH51 fused to the DNA-binding domain (Salvia miltiorrhiza); experiment: two-hybrid; Matchmaker Gold yeast two-hybrid system, yeast strain AH109; AtPAP1 on the activation domain (pGADT7), SmbHLH51 on the DNA-binding domain (pGBKT7); growth on synthetic dextrose/-Ade/-His/-Leu/-Trp medium; images on day 5
[2] = target: SmbHLH51 fused to the C-terminal domain of firefly luciferase (Salvia miltiorrhiza); experiment: split reporter; firefly luciferase complementation imaging (LCI); NLuc and CLuc constructs co-infiltrated by Agrobacterium GV3101 into tobacco leaves; Luc activity imaged with IVIS Spectrum

binding [1]: binds
B1: Arabidopsis thaliana production of anthocyanin pigment 1 (AtPAP1) fused to the activation domain (protein, UniProt Q9FE25 1-248)
chain: MEGSSKGLRKGAWTTEEDSLLRQCINKYGEGKWHQVPVRAGLNRCRKSCRLRWLNYLKPSIKRGKLSSDEVDLLLRLHRLLGNRWSLIAGRLPGRTANDVKNYWNTHLSKKHEPCCKIKMKKRDITPIPTTPALKNNVYKPRPRSFTVNNDCNHLNAPPKVDVNPPCLGLNINNVCDNSIIYNKDKKKDQLVNNLIDGDNMWLEKFLEESQEVDILVPEATTTEKGDTLAFDVDQLWSLFDGETVKFD

binding [2]: binds
B2: AtPAP1 fused to the N-terminal domain of firefly luciferase (protein, UniProt Q9FE25 1-248)
chain: B1 chain

Results are given in words; binding and its absence hold for the method and conditions named. A result given as binding can be weak or reduced; the word gives no strength. Where a sequence is shown, tags or fusion partners need not be part of it. For some assays here: Binding seen in cells or lysates may run through a third protein. Each block holds one binder with its values, some of them ahead of it.
